# The supplement of paper PMC8728848
# The list shows a part of the results.
# B1: AT3G09350(27) (Arabidopsis thaliana), Q84J81 (protein)
# chain: MAKDGPNWDGLLKWSLSHADGTRPTRQLSEEDRKWFMEAMQSQTVDVVKRMKEITLVMQTPEQVLVEHGVTPEDIQDLLDELQEHVESIDMANDLHSIGGLVPLLSFLKNSHANIRAKAADVVSTIVQNNPRSQELVMETNALESLLSNFTSDTDIHARTQALGAISSLIRHNKPGVTAFKLANGYAGLRDALASDSVRFQRKALNLLQYLLQEDDSDRSIATGLGFPRVMMHLASSDDAEIREAALRGLLELSREKNDGSSSIDKSDEKLRQLLEERIKGITLMSQEDLETVKEERQLVDLLWSICYNEPSSLREKGLVVLPGEDALPPDVASKLFEPPLRASAANRNATEKKDEPMKLLGP
# How the values were obtained:
# Experiment in all cases: glycan array binding signal (z-score within array); higher = stronger binding
# Conditions in all cases: glycan notation: IUPAC condensed, linker removed
# GalNAc3S(b1-4)GlcNAc3S = target: GalNAc3S(b1-4)GlcNAc3S
# Summary of the method: (§1)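 Negative Z-scores can be read as non-binding. The Z-score is calculated within each array and then averaged across arrays of one protein sequence at different concentrations or buffers and across linkers. Arrays, 3228 in all, were curated from the Consortium for Functional Glycomics database and kept only where the protein sequence was available.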
# [1] = target: GalNAc3S(b1-4)[Fuc(a1-3)]GlcNAc
# Summary of the method: as §1
# GalNAc4S6S(b1-4)GlcNAc = target: GalNAc4S6S(b1-4)GlcNAc
# Summary of the method: as §1
# GalNAc6S(b1-4)GlcNAc = target: GalNAc6S(b1-4)GlcNAc
# Summary of the method: as §1
# Glc(a1-4)Glc = target: Glc(a1-4)Glc
# Summary of the method: as §1
# [2] = target: Glc(a1-4)Glc(a1-4)Glc(a1-4)Glc
# Summary of the method: as §1
# Glc(a1-6)Glc(a1-6)Glc = target: Glc(a1-6)Glc(a1-6)Glc
# Summary of the method: as §1
# [3] = target: Glc(a1-6)Glc(a1-6)Glc(a1-6)Glc
# Summary of the method: as §1
# Glc(b1-4)Glc = target: Glc(b1-4)Glc
# Summary of the method: as §1
# Glc(b1-6)Glc = target: Glc(b1-6)Glc
# Summary of the method: as §1
# GlcA(b1-3)Gal = target: GlcA(b1-3)Gal
# Summary of the method: as §1
# GlcA(b1-3)GlcNAc = target: GlcA(b1-3)GlcNAc
# Summary of the method: as §1
# GlcA(b1-6)Gal = target: GlcA(b1-6)Gal
# Summary of the method: as §1
# [4] = target: GlcA3S(b1-3)Gal(b1-4)GlcNAc(b1-2)Man
# Summary of the method: as §1
# [5] = target: GlcA3S(b1-3)Gal(b1-4)GlcNAc(b1-3)Gal(b1-4)Glc
# Summary of the method: as §1
# [6] = target: GlcNAc(a1-3)Gal(b1-4)GlcNAc
# Summary of the method: as §1
# [7] = target: GlcNAc(a1-4)Gal(b1-3)GlcNAc
# Summary of the method: as §1
# [8] = target: GlcNAc(a1-4)Gal(b1-4)GalNAc
# Summary of the method: as §1
# [9] = target: GlcNAc(a1-4)Gal(b1-4)GlcNAc
# Summary of the method: as §1
# [10] = target: GlcNAc(a1-4)Gal(b1-4)GlcNAc(b1-3)Gal(b1-4)Glc
# Summary of the method: as §1
# [11] = target: GlcNAc(a1-4)Gal(b1-4)GlcNAc(b1-3)Gal(b1-4)GlcNAc
# Summary of the method: as §1
# [12] = target: GlcNAc(a1-4)Gal(b1-4)GlcNAc(b1-3)Gal(b1-4)GlcNAc(b1-3)Gal(b1-4)GlcNAc
# Summary of the method: as §1
# [13] = target: GlcNAc(a1-4)Gal(b1-4)GlcNAc(b1-3)Gal(b1-4)[Fuc(a1-3)]GlcNAc(b1-3)Gal(b1-4)[Fuc(a1-3)]GlcNAc
# Summary of the method: as §1
# [14] = target: GlcNAc(a1-6)Gal(b1-4)GlcNAc
# Summary of the method: as §1
# [15] = target: GlcNAc(b1-2)Gal(b1-3)GalNAc
# Summary of the method: as §1
# [16] = target: GlcNAc(b1-2)Man(a1-3)[GlcNAc(b1-2)Man(a1-6)]Man(b1-4)GlcNAc(b1-4)GlcNAc
# Summary of the method: as §1
# [17] = target: GlcNAc(b1-2)Man(a1-3)[GlcNAc(b1-2)Man(a1-6)]Man(b1-4)GlcNAc(b1-4)[Fuc(a1-6)]GlcNAc
# Summary of the method: as §1
# [18] = target: GlcNAc(b1-2)Man(a1-3)[GlcNAc(b1-4)][GlcNAc(b1-2)Man(a1-6)]Man(b1-4)GlcNAc(b1-4)GlcNAc
# Summary of the method: as §1
# [19] = target: GlcNAc(b1-2)Man(a1-3)[GlcNAc(b1-4)][GlcNAc(b1-2)Man(a1-6)]Man(b1-4)GlcNAc(b1-4)[Fuc(a1-6)]GlcNAc
# Summary of the method: as §1
# [20] = target: GlcNAc(b1-2)[GlcNAc(b1-4)]Man(a1-3)[GlcNAc(b1-2)Man(a1-6)]Man(b1-4)GlcNAc(b1-4)GlcNAc
# Summary of the method: as §1
# [21] = target: GlcNAc(b1-2)[GlcNAc(b1-4)]Man(a1-3)[GlcNAc(b1-4)][GlcNAc(b1-2)Man(a1-6)]Man(b1-4)GlcNAc(b1-4)GlcNAc
# Summary of the method: as §1
# [22] = target: GlcNAc(b1-2)[GlcNAc(b1-4)]Man(a1-3)[GlcNAc(b1-4)][GlcNAc(b1-2)[GlcNAc(b1-6)]Man(a1-6)]Man(b1-4)GlcNAc(b1-4)GlcNAc
# Summary of the method: as §1
# [23] = target: GlcNAc(b1-2)[GlcNAc(b1-4)]Man(a1-3)[GlcNAc(b1-4)][GlcNAc(b1-2)[GlcNAc(b1-6)]Man(a1-6)]Man(b1-4)GlcNAc(b1-4)[Fuc(a1-6)]GlcNAc
# Summary of the method: as §1
# [24] = target: GlcNAc(b1-2)[GlcNAc(b1-6)]Man(a1-6)[GlcNAc(b1-2)Man(a1-3)]Man(b1-4)GlcNAc(b1-4)GlcNAc
# Summary of the method: as §1
# [25] = target: GlcNAc(b1-2)[GlcNAc(b1-6)]Man(a1-6)[GlcNAc(b1-2)Man(a1-3)]Man(b1-4)GlcNAc(b1-4)[Fuc(a1-6)]GlcNAc
# Summary of the method: as §1
# [26] = target: GlcNAc(b1-2)[GlcNAc(b1-6)]Man(a1-6)[GlcNAc(b1-4)][GlcNAc(b1-2)Man(a1-3)]Man(b1-4)GlcNAc(b1-4)GlcNAc
# Summary of the method: as §1
# GlcNAc(b1-3)Fuc = target: GlcNAc(b1-3)Fuc
# Summary of the method: as §1
# GlcNAc(b1-3)Gal = target: GlcNAc(b1-3)Gal
# Summary of the method: as §1
binder,measurement,setting,value
B1,glycan array binding signal (z-score),GalNAc3S(b1-4)GlcNAc3S,-0.031
same,glycan array binding signal (z-score),[1],-0.037
same,glycan array binding signal (z-score),GalNAc4S6S(b1-4)GlcNAc,-0.972
same,glycan array binding signal (z-score),GalNAc6S(b1-4)GlcNAc,-0.386
same,glycan array binding signal (z-score),Glc(a1-4)Glc,0.008
same,glycan array binding signal (z-score),[2],-0.261
same,glycan array binding signal (z-score),Glc(a1-6)Glc(a1-6)Glc,-0.711
same,glycan array binding signal (z-score),[3],-0.182
same,glycan array binding signal (z-score),Glc(b1-4)Glc,-0.234
same,glycan array binding signal (z-score),Glc(b1-6)Glc,-0.976
same,glycan array binding signal (z-score),GlcA(b1-3)Gal,-0.672
same,glycan array binding signal (z-score),GlcA(b1-3)GlcNAc,-0.957
same,glycan array binding signal (z-score),GlcA(b1-6)Gal,-0.136
same,glycan array binding signal (z-score),[4],-0.38
same,glycan array binding signal (z-score),[5],0.438
same,glycan array binding signal (z-score),[6],-0.46
same,glycan array binding signal (z-score),[7],0.413
same,glycan array binding signal (z-score),[8],-0.399
same,glycan array binding signal (z-score),[9],-0.466
same,glycan array binding signal (z-score),[10],-0.604
same,glycan array binding signal (z-score),[11],-0.069
same,glycan array binding signal (z-score),[12],-0.25
same,glycan array binding signal (z-score),[13],0.47
same,glycan array binding signal (z-score),[14],-0.037
same,glycan array binding signal (z-score),[15],-0.397
same,glycan array binding signal (z-score),[16],-0.665
same,glycan array binding signal (z-score),[17],1.18
same,glycan array binding signal (z-score),[18],-0.11
same,glycan array binding signal (z-score),[19],-0.83
same,glycan array binding signal (z-score),[20],0.595
same,glycan array binding signal (z-score),[21],-0.246
same,glycan array binding signal (z-score),[22],0.405
same,glycan array binding signal (z-score),[23],-0.312
same,glycan array binding signal (z-score),[24],-0.892
same,glycan array binding signal (z-score),[25],-0.781
same,glycan array binding signal (z-score),[26],-0.33
same,glycan array binding signal (z-score),GlcNAc(b1-3)Fuc,-0.889
same,glycan array binding signal (z-score),GlcNAc(b1-3)Gal,-0.171

# 2 successive records from above, for reference:
binder,measurement,setting,value
B1,glycan array binding signal (z-score),GlcA(b1-6)Gal,-0.136
same,glycan array binding signal (z-score),[4],-0.38
